These are yes or no findings as the source states them, for the method shown. In cells and extracts the contact can be indirect. Some binding calls cover weakened binding; strength is not graded here. Sequences can lack the tags named with a protein.
Columns and labels:
Assay in all cases: co-IP
Flag-STING = Flag-STING (UniProt Q86WV6)
Flag-IRF3 = biological target: T1, Flag-IRF3 (UniProt Q14653)
T1 sequence: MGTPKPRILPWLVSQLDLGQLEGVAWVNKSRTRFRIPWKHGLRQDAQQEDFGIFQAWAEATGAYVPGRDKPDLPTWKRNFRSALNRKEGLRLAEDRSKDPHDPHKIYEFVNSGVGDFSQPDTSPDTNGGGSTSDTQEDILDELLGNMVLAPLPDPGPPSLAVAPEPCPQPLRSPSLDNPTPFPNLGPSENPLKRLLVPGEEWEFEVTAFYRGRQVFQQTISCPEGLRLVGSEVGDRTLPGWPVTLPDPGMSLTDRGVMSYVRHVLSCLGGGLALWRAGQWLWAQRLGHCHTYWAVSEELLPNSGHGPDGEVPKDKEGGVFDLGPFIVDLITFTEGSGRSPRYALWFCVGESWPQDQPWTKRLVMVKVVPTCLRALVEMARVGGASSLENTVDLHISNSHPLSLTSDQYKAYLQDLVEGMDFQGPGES

The chains behind the UniProt entries cited, without tags or fusion partners.
UniProt Q86WV6: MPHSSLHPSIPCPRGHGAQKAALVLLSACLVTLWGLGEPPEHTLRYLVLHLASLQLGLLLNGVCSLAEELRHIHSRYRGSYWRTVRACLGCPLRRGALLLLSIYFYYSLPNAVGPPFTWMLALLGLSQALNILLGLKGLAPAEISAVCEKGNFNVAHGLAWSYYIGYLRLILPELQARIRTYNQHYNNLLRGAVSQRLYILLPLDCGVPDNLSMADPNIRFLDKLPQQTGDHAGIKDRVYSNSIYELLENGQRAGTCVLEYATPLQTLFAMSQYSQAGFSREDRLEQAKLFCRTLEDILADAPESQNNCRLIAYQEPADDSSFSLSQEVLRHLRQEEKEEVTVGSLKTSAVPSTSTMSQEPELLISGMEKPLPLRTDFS
UniProt Q8N884: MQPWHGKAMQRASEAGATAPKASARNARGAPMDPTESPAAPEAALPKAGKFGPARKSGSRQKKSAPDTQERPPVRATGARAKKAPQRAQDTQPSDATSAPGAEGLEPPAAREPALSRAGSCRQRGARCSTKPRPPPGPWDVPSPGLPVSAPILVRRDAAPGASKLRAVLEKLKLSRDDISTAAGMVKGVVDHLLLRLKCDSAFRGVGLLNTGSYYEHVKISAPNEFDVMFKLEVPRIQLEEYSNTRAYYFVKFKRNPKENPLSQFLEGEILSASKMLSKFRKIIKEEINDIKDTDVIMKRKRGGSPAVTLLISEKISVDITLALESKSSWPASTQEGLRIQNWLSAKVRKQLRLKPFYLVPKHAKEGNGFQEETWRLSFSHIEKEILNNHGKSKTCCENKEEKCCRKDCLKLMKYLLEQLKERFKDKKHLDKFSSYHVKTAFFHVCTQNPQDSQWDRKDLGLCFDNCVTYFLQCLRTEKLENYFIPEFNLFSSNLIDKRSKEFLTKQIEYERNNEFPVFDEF

Flag-cGAS (human) = Flag-cGAS (human) (UniProt Q8N884)

- binding (Flag-STING): no binding
- binding (Flag-IRF3): binds
- binding (Flag-cGAS (human)): binds
B1: Myc-HERC5 (protein, UniProt Q9UII4 1-1024)
chain: MERRSRRKSRRNGRSTAGKAAATQPAKSPGAQLWLFPSAAGLHRALLRRVEVTRQLCCSPGRLAVLERGGAGVQVHQLLAGSGGARTPKCIKLGKNMKIHSVDQGAEHMLILSSDGKPFEYDNYSMKHLRFESILQEKKIIQITCGDYHSLALSKGGELFAWGQNLHGQLGVGRKFPSTTTPQIVEHLAGVPLAQISAGEAHSMALSMSGNIYSWGKNECGQLGLGHTESKDDPSLIEGLDNQKVEFVACGGSHSALLTQDGLLFTFGAGKHGQLGHNSTQNELRPCLVAELVGYRVTQIACGRWHTLAYVSDLGKVFSFGSGKDGQLGNGGTRDQLMPLPVKVSSSEELKLESHTSEKELIMIAGGNQSILLWIKKENSYVNLKRTIPTLNEGTVKRWIADVETKRWQSTKREIQEIFSSPACLTGSFLRKRRTTEMMPVYLDLNKARNIFKELTQKDWITNMITTCLKDNLLKRLPFHSPPQEALEIFFLLPECPMMHISNNWESLVVPFAKVVCKMSDQSSLVLEEYWATLQESTFSKLVQMFKTAVICQLDYWDESAEENGNVQALLEMLKKLHRVNQVKCQLPESIFQVDELLHRLNFFVEVCRRYLWKMTVDASENVQCCVIFSHFPFIFNNLSKIKLLHTDTLLKIESKKHKAYLRSAAIEEERESEFALRPTFDLTVRRNHLIEDVLNQLSQFENEDLRKELWVSFSGEIGYDLGGVKKEFFYCLFAEMIQPEYGMFMYPEGASCMWFPVKPKFEKKRYFFFGVLCGLSLFNCNVANLPFPLALFKKLLDQMPSLEDLKELSPDLGKNLQTLLDDEGDNFEEVFYIHFNVHWDRNDTNLIPNGSSITVNQTNKRDYVSKYINYIFNDSVKAVYEEFRRGFYKMCDEDIIKLFHPEELKDVIVGNTDYDWKTFEKNARYEPGYNSSHPTIVMFWKAFHKLTLEEKKKFLVFLTGTDRLQMKDLNNMKITFCCPESWNERDPIRALTCFSVLFLPKYSTMETVEEALQEAINNNRGFG

Source: paper doi:10.1101/2023.01.03.522548
